Data as given in the supplement of paper PMC3334620.
In all, about 33,000 sequences were measured (“E-score (-0.5 to 0.5)”: median about -0.0014, highest 2% from about 0.25 on). This is one part of the list.

Each sequence was assayed against T1, Cad1 (UniProt P24813) (assay: PBM E-score (8-mer binding enrichment) (E-score (-0.5 to 0.5)); higher = stronger / more preferred TF binding). Settings: protein concentration: 100 nM; construct: GST-full length.
T1 sequence: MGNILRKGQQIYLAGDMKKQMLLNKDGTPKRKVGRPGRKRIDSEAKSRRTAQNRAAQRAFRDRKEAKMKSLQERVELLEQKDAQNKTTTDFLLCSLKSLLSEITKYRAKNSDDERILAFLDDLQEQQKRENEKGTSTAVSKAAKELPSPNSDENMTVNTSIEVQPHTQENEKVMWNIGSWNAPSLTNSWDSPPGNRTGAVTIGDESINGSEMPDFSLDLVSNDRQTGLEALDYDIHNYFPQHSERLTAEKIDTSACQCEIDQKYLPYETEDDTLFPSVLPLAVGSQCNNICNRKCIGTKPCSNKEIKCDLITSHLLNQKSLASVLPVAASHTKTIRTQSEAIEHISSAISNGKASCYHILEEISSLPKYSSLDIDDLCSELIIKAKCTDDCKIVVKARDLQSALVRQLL
How it was run: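 Masliner-normalised scans of fluorescent anti-GST signal were the basis for scoring. That signal came from GST-tagged yeast transcription factors applied at about 100-200 nM to double-stranded universal all-10-mer Agilent arrays on fresh or once-stripped slides. Each ungapped eight-base word, pooled with its reverse complement, received an E-score from the Universal PBM Analysis Suite.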

Sequence	PBM E-score
AGTAGCAT	-0.0141
AAACTTGA	0.0474
ACGCACTC	-0.0595
AGTTGCAA	0.0789
AAGACTCA	-0.153
ACTTTTCT	0.0259
ATGCTGCA	0.0922
GCCCCCCA	-0.464
GATTGGCC	-0.00913
AAACAGTT	0.0189
ACTGCCGA	0.0319
CACACAAC	0.0484
GCTACAGC	-0.0901
TAAAGACA	-0.13
CCACCAAC	0.084
CAGGCTGA	-0.125
CGCCTCTC	-0.412
GAATGCTC	-0.0426
ATGACAAT	0.171
CTCATAAC	-0.0614
TCGCTACA	-0.399
ATGAATGC	0.103
ACCGGCGT	0.0885
CCCAGTCG	-0.236
AAACGTAC	0.0592

Sequence	PBM E-score
ATGCTACG	0.104
TCTCGTAA	0.118
GTATTCAC	0.115
CCGTGCTA	-0.163
ACTCAGCC	-0.0931
AATTTCTG	0.0718
AAATTTAA	0.118
GAGCATAA	0.077
ATACGTAG	0.00381
GTTCTGCA	0.0378
CAAGCGCA	0.262
CTTCTGAC	-0.197
CCATAGGC	-0.0478
ACGAGCTG	0.121
TGCTCCAA	0.0768
ACATGAAC	0.0635
ATCACAGG	-0.0203
TCCTTCCA	-0.151
CATTATTC	0.0711
ATCCTGCG	0.0649
ACACAAGG	-0.0552
ATAGGTCG	-0.125
GGGAAGAA	-0.0579
ATGCCCAT	-0.176
ACTGCACA	0.0876

Sequence	PBM E-score
CATCGTCG	-0.235
AGTCGCCA	-0.158
CTCTTAAG	-0.0209
ATCCCCGG	-0.307
CTTTGAGC	-0.16
CGAAGACC	-0.0641
ACTGCACT	0.0895
CGCAAAAC	0.227
ACGCCTTC	-0.0332
AGACCTCT	-0.154
ATAGGTAA	0.00072
CTTGAGAC	-0.0953
CATGACCG	-0.279
CACGAATG	0.027
AGTTAATA	0.199
AGACAGCT	0.0172
AGGGTGAT	-0.188
CGAATCGC	0.0424
CTCACCGC	-0.141
GCACCCGC	-0.0522
CATATATG	0.154
CGCAGGAC	-0.0401
CGCCAATC	0.0161
CAAACTCA	0.0383
ACCGTCAG	-0.00173

Taken from above.
In PBM E-score, CTTGAGAC has the entry -0.0953
In PBM E-score, CACACAAC has the entry 0.0484

Continuation.

Sequence	PBM E-score
TAGGGCCA	-0.177
AAAAGTTG	0.0367
TAGGCTGA	-0.0419
ATTAGTTC	0.149
ACCTTTCC	-0.144
CCCACTCG	-0.151
CGAGGGGC	-0.323
CAAGGAAA	-0.186
ATCGGACG	-0.102
GGTGAAGA	-0.129
ACTAGCGG	0.0551
ATGCTCCC	-0.24
GTTTTCCA	0.0942
TAGAGTCA	-0.321
AATGTCAT	0.132
AAAAGACT	-0.141
GACGAGAC	-0.0636
CGCTCTAA	-0.0685
TATGTTAA	0.0579
GGCCCTGA	-0.0784
CGCGACTA	0.204
GTGACGGA	0.0478
CAGCCGGG	-0.0739
ATACAGCA	0.121
TACTTGGA	0.0975

Sequence	PBM E-score
GACCCTAA	-0.079
GAGTTTAA	0.181
CGTATTAC	0.108
CGCTTGAC	-0.129
ATTCAGGG	-0.0104
CGCATTGA	0.116
CGGATGAC	0.111
CTCTGAAC	-0.212
GCCAGGGC	-0.0916
AAGGACTA	-0.0534
CTCTGCCC	-0.17
AGCGGGCC	-0.0503
CGCCCTCC	-0.273
TACGGTGA	-0.00075
CACCAGGA	0.0973
CCGAACAA	0.107
AAGGTTGA	0.0462
CTCAGCAG	0.172
CGTTCACA	-0.0208
AATCTAGT	0.184
AGGGGGAA	-0.248
TCAGAAAA	-0.145
AAGGTCAC	-0.135
CCCCTCTA	-0.246
CCTGCTGA	0.245

Sequence	PBM E-score
AACTACAG	0.00279
GAGCAAGC	-0.00033
ACTTCTTC	-0.0312
CAAAGACA	0.143
ACGTCCTA	-0.062
GAACGCAC	0.0789
AGGATGCA	0.0173
ATCCGTTA	0.303
AGTAATCA	0.297
GAACCGGA	0.134
CGACCGAC	-0.0575
TGGGCGAA	-0.075
TATTCGGA	0.0942
TCTCAGCA	-0.127
ACAAATTG	0.202
ATATCCGG	0.162
CCTGGTTA	-0.0859
TGGCCACA	0.0946
GCTATCAC	0.0812
GTACGCGA	-0.0842
ATGCAGGG	0.0136
AAAGCTAA	0.0006
GGACCTGA	-0.108
CGATCGCA	0.169
AGGTCCGC	-0.0615

Sequence	PBM E-score
ACAAATAA	0.206
CGCTGGGC	-0.15
TACGCACA	0.141
CAGTCGGG	-0.16
CCACTCGC	0.0149
GCAATTAA	0.139
AAGGAGAG	-0.31
CTATACTA	0.0535
AGACCAAA	0.0474
CAAACATA	-0.173
ATGTTCGG	0.0439
ACGTGATC	0.14
GACCCCCA	-0.424
CCTCAACG	-0.122
ATCATTCC	-0.0418
CTACAAAC	-0.0457
ACCTAACT	0.171
AGGTGAAC	0.0258
GATGTGGA	0.0129
GAATCCGA	0.134
CTTCGTAC	-0.201
GGCTATAC	0.137

An excerpt of these results, in markdown.

| Sequence | PBM E-score |
| --- | --- |
| GACCCCCA | -0.424 |
| CCTCAACG | -0.122 |
| ATCATTCC | -0.0418 |
